Measurements reported in PubChem BioAssay AID1259308 (NCATS, 2017).
The whole screen tested about 59,000 reagents; shown is an unselected part. About 1,510 of them (2.6%) count as active. 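Calls use total luciferase alone and ignore viability, so some active siRNAs may act by altering cell number.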 Unmarked entries are inactive. The numbers tell different reagents against one gene apart.

Screen: 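Knock-downs that increase output of a recombinant reporter protein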 (primary screen)
System: human HEK293 embryonic kidney cells stably expressing firefly luciferase (HEK-CMV-Luc2-Hygro)
Reagent: single siRNA against human genes, 0.8 pmol siRNA per well
Timing: 72 h
Detection: 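Reporter luminescence and viable-cell signal on separate replicate plates, given as percent of non-targeting control and median/MAD z-scores, plus per-cell luciferase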
Reading the numbers: total luciferase, z-score and total luciferase, % of control: higher = more reporter protein produced; luciferase per cell, z-score: higher = more reporter output per viable cell; viable cells, % of control: higher = more viable cells
Call rule: 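Active when the median/MAD z-score for overall luciferase is greater than 3; a gene was taken forward for validation with new siRNAs if at least two of its three siRNAs passed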
Meaning of the calls: active = raised luciferase; inactive = no rise

| target gene | reagent | total luciferase, z-score | total luciferase, % of control | luciferase per cell, z-score | viable cells, % of control |
| --- | --- | --- | --- | --- | --- |
| LCE3C (late cornified envelope 3C) | 1 | -0.218 | 77.5 | -0.117 | 89.4 |
| LCE3C (late cornified envelope 3C) | 2 | 1.27 | 107 | -0.224 | 127 |
| LCE3C (late cornified envelope 3C) | 3 | 0.0831 | 83.5 | 0.175 | 89.1 |
| HIBADH (3-hydroxyisobutyrate dehydrogenase) | 1 | 0.434 | 90.5 | 0.341 | 92.5 |
| HIBADH (3-hydroxyisobutyrate dehydrogenase) | 2 | 0.228 | 86.4 | -0.141 | 100 |
| HIBADH (3-hydroxyisobutyrate dehydrogenase) | 3 | -2.46 | 32.9 | -2.64 | 73.7 |
| CSHL1 (chorionic somatomammotropin hormone like 1) | 1 | 0.132 | 84.5 | -0.445 | 106 |
| CSHL1 (chorionic somatomammotropin hormone like 1) | 2 | -0.56 | 70.8 | -0.994 | 103 |
| CSHL1 (chorionic somatomammotropin hormone like 1) | 3 | -0.322 | 75.5 | -0.259 | 90.3 |
| EFCC1 (EF-hand and coiled-coil domain containing 1) | 1 | 2.31 | 128 | 2.12 | 81.8 |
| EFCC1 (EF-hand and coiled-coil domain containing 1) | 2 | -0.119 | 79.5 | 0.391 | 80.2 |
| EFCC1 (EF-hand and coiled-coil domain containing 1) | 3 | -0.203 | 77.9 | 0.124 | 84.2 |
| EFCC1 (EF-hand and coiled-coil domain containing 1) | 4 | -0.109 | 79.7 | -0.119 | 91.9 |
| EFCC1 (EF-hand and coiled-coil domain containing 1) | 5 | 0.246 | 86.8 | -0.402 | 108 |
| EFCC1 (EF-hand and coiled-coil domain containing 1) | 6 | 0.0834 | 83.5 | -0.631 | 110 |
| RANBP6 (RAN binding protein 6) | 1 | -0.0528 | 80.8 | -0.615 | 106 |
| RANBP6 (RAN binding protein 6) | 2 | 0.377 | 89.4 | 0.174 | 95.4 |
| RANBP6 (RAN binding protein 6) | 3 | -1.13 | 59.5 | -0.823 | 82.5 |
| BCLAF1P1 (BCL2 associated transcription factor 1 pseudogene 1) | 1 | 0.192 | 85.7 | -0.0859 | 98 |
| BCLAF1P1 (BCL2 associated transcription factor 1 pseudogene 1) | 2 | 0.435 | 90.5 | 0.991 | 77.9 |
| BCLAF1P1 (BCL2 associated transcription factor 1 pseudogene 1) | 3 | 2.36 | 129 | 2.01 | 84.9 |
| OR11H1 (olfactory receptor family 11 subfamily H member 1) | 1 | 0.457 | 91 | 0.604 | 86.7 |
| OR11H1 (olfactory receptor family 11 subfamily H member 1) | 2 | 0.726 | 96.3 | 0.735 | 88.7 |
| OR11H1 (olfactory receptor family 11 subfamily H member 1) | 3 | -0.126 | 79.4 | -0.401 | 98.6 |
| IGSF9 (immunoglobulin superfamily member 9) | 1 | 0.132 | 84.5 | 0.202 | 89.5 |
| IGSF9 (immunoglobulin superfamily member 9) | 2 | 0.389 | 89.6 | 0.375 | 90.7 |
| IGSF9 (immunoglobulin superfamily member 9) | 3 | 1.99 | 121 | 1.72 | 86.4 |
| IGFBP6 (insulin like growth factor binding protein 6) | 1 | 0.631 | 94.4 | 1.06 | 79.9 |
| IGFBP6 (insulin like growth factor binding protein 6) | 2 | -0.813 | 65.7 | -0.959 | 94.5 |
| IGFBP6 (insulin like growth factor binding protein 6) | 3 | 0.902 | 99.8 | 0.738 | 91.8 |
| MYLK2 (myosin light chain kinase 2) | 1 | 1.5 | 112 | 0.806 | 101 |
| MYLK2 (myosin light chain kinase 2) | 2 | -1.96 | 43 | -1.41 | 69.6 |
| MYLK2 (myosin light chain kinase 2) | 3 | 1.06 | 103 | 0.0188 | 115 |
| RNF213 (ring finger protein 213) | 1 | -0.0294 | 81.3 | -0.439 | 102 |
| RNF213 (ring finger protein 213) | 2 | -0.0555 | 80.8 | 0.301 | 83.4 |
| RNF213 (ring finger protein 213) | 3 | -0.282 | 76.3 | -0.549 | 98.5 |
| RNF213 (ring finger protein 213) | 4 | 0.382 | 89.5 | 0.455 | 88.7 |
| RNF213 (ring finger protein 213) | 5 | -1.95 | 43 | -1.19 | 65.8 |
| RNF213 (ring finger protein 213) | 6 | 2.47 | 131 | 1.48 | 99.1 |
| LPAR4 (lysophosphatidic acid receptor 4) | 1 | 0.146 | 84.8 | 0.0458 | 93.6 |
| LPAR4 (lysophosphatidic acid receptor 4) | 2 | 0.436 | 90.6 | -0.0903 | 104 |
| LPAR4 (lysophosphatidic acid receptor 4) | 3 | -1.84 | 45.3 | -1.33 | 71.9 |
| H4C13 (H4 clustered histone 13) | 1 | -0.485 | 72.2 | -0.0247 | 81.3 |
| H4C13 (H4 clustered histone 13) | 2 | -0.883 | 64.3 | -0.263 | 77 |
| H4C13 (H4 clustered histone 13) | 3 | -0.605 | 69.8 | -0.432 | 87.5 |
| ZNF616 (zinc finger protein 616) | 1 | -0.566 | 70.6 | -0.284 | 85.1 |
| ZNF616 (zinc finger protein 616) | 2 | 1.46 | 111 | 1.01 | 95.1 |
| ZNF616 (zinc finger protein 616) | 3 | -0.301 | 75.9 | -0.422 | 94.8 |
| KANK2 (KN motif and ankyrin repeat domains 2) | 1 | -0.269 | 76.5 | -0.544 | 98.7 |
| KANK2 (KN motif and ankyrin repeat domains 2) | 2 | -0.0706 | 80.5 | 0.276 | 83.6 |
| KANK2 (KN motif and ankyrin repeat domains 2) | 3 | 1.63 | 114 | 0.943 | 99.7 |
| AGMAT (agmatinase (putative)) | 1 | -0.452 | 72.9 | -0.655 | 96.8 |
| AGMAT (agmatinase (putative)) | 2 | -1.59 | 50.2 | -1.41 | 81.4 |
| AGMAT (agmatinase (putative)) | 3 | 0.92 | 100 | 0.574 | 96.2 |
| MORC1 (MORC family CW-type zinc finger 1) | 1 | -0.198 | 77.9 | 0.366 | 79.1 |
| MORC1 (MORC family CW-type zinc finger 1) | 2 | -0.701 | 67.9 | -0.628 | 89.6 |
| MORC1 (MORC family CW-type zinc finger 1) | 3 | -1.12 | 59.6 | -1.6 | 101 |

3 of these entries, reformatted:
{"target gene":"RANBP6 (RAN binding protein 6)","reagent":2,"total luciferase, z-score":0.377,"total luciferase, % of control":89.4,"luciferase per cell, z-score":0.174,"viable cells, % of control":95.4}
{"target gene":"RANBP6 (RAN binding protein 6)","reagent":3,"total luciferase, z-score":-1.13,"total luciferase, % of control":59.5,"luciferase per cell, z-score":-0.823,"viable cells, % of control":82.5}
{"target gene":"BCLAF1P1 (BCL2 associated transcription factor 1 pseudogene 1)","reagent":1,"total luciferase, z-score":0.192,"total luciferase, % of control":85.7,"luciferase per cell, z-score":-0.0859,"viable cells, % of control":98}
